At least one result comes from cells or an extract, where the contact may be indirect. No signal at the amounts used counts as a negative. For some assays here: A weaker result is weaker than the reference pair of the same experiment. For at least one entry, the source does not settle the construct or the ends of the probe.

The first data set concerns the target transferrin receptor (TfR, CD71), native on human cells (Homo sapiens) (UniProt P02786). Nature of the data set: binding assay. The conditions noted are these: 2'-F pyrimidines; activity at transferrin receptor; listing SEQ 56 has an ambiguous base; protein on the cell surface.
On to “UGGUUCUACGAUAAACGGUUAAUGACCAGCUUAUGGCUGGCAGUUCCU [R10-36]”, for which the binding result is recorded as “binds”.

The same data set, now with this note: 2'-F pyrimidines; activity at transferrin receptor; protein on the cell surface.
As to “GGGUUCUACGACAAACGGUUAAUGAUCAGCUUAUGGCUGGCAGUUCCC [Dv3R4-20]”, the binding result is reported as “binds more weakly”.
On the same count and under the same terms, in the case of “GGGUUCUACGAUAAACGGUUAAUGACCAGCUUAUGACUGGCAGUUCCC [Dv3R4-12]” it was “binds more weakly”; in that of “GGGUUUUACGAUAAACGGUUAAUGAUCAGCUUAAGACUGGCAAUUCCC [Dv3R4-22]”, “binds”; in that of “UGGUUCUACGAUAAACGGUUAAUGAUCAGCUUAUGGCUGGCAGUUCCU [Waz-like (R10)]”, “binds”.

The same data set, now with this note: 2'-F pyrimidines; relative activity at the transferrin receptor; protein on the cell surface; variant of 36i.
Take “GGGAACUACGAUAAACGGUUAAUGACCAGCUUAUGGCUGGCAGUUCCC [Waz1]”: the binding result was “no binding”.
On the same count and under the same terms, the entry for “GGGUACGACAAACGGUCAAUGACCAGCUUAUGGCUGGCACCC [Waz4 (Table I minimized variant)]” is “no binding”; for “GGGUACGAUAAACGGUUAAGGACCAGCUUAUGGCUGGCCCCC [Waz3]” it is “no binding”; for “GGGUACGAUAAACGGUUAAUGACCAGCUUAUGGCUGGCACCC [Waz2]” it is “no binding”.

Still in this data set, the particulars now being: 2'-F pyrimidines; relative activity at the transferrin receptor; protein on the cell surface; variant of clone 1036.
As for “GGGAGUUCUACGAUAAACGGUUAAUGACCAGCUUAUGGCUGGCAGUUCCUCCC [36b]”, the binding result is reported as “binds more weakly”.
Consider “GGGAGUUCUAGUUAAUGACCAGCUUAUGGCUGGCAGUUCCUCCC [36c]”, for which the binding result is “no binding”.
Same read-out and setting: in the case of “GGGUGAAUCAUAAACGGUUAAUGACCAGCUUAUGGCUGGCAGUUCCUACAGCACCC [36g]” it was “no binding”; in that of “GGGUGAAUGGUUCUACGAUAAACGGCUUAAUAGUUGCCUAUAGCACCC [36h]”, “no binding”; in that of “GGGUGAAUGGUUCUACGAUAAACGGGUUAAUGACCAGCUUAUGGCUGGCAGUUCCCUAUAGCACCC [36e]”, “no binding”.
Still for that read-out and setting: in the case of “GGGUGAAUGGUUCUACGAUAAACGGUUAAUGACCAGCUUAUGGCUGGCAGUUCCUAUAGCACCC [36a]” it was “binds”; in that of “GGGUGAAUGGUUCUACGAUAAACGGUUAAUGACCGAAAGGCAGUUCCUAUAGCACCC [36f]”, “no binding”; in that of GGGUUAAUGACCAGCUUAUGGCUGGCAGUUCCC [36d], “binds more weakly”.
For the sequence “GGGUUCUACGAUAAACGGUUAAUGACCAGCUUAUGGCUGGCAGUUCCC [36i]”, the binding result is “binds”.

For another data set the target is unchanged. Nature of the data set: flow cytometry. As to conditions: 2'-F pyrimidines; 3' idT (printed as terminal t); 5' thiol; control aptamer, human cell lines; protein on the cell surface; label: AF488.
With “GGCGUAGUGAUUAUGAAUCGUGUGCUAAUACACGCC [cntrl.36 (C36)]”, the binding result is listed as “no binding”.

The same data set, now with this note: 2'-F pyrimidines; Jurkat cells, no staining; protein on the cell surface; label: AF488 primer hybridized.
Turning to “GGGAGGUGAAUGGUUCUACGAUACAAGUAUCGGUUUUACAAUACAGACGUACAGUGCGAUAGCCAAGCGGAAUUACAUGCGAGAUGACCACGUAAUUGAAUUAAAUGCCCGCCAUGACCAG [round 5 non-binding clone (SEQ 38)]”, the binding result is “no binding”.
Same read-out and setting: in the case of “GGGAGGUGAAUGGUUCUACGAUACGCAUGGCAGGAAGCAUGUUAUCCCCUAAGAAUCCGCAAUCGCUCGUAAUUACAUGCGAGAUGACCACGUAAUUGAAUUAAAUGCCCGCCAUGACCAG [round 5 non-binding clone (SEQ 32)]” it was “no binding”; in that of “GGGAGGUGAAUGGUUCUACGAUAGGGUGAAAUUGCGAGCGUUGCCCAACUUUAUAAGUUGGUGAAUAGCCAUUACAUGCGAGAUGACCACGUAAUUGAAUUAAAUGCCCGCCAUGACCAG [round 5 non-binding clone (SEQ 37)]”, “no binding”.
“GGGAGGUGAAUGGUUCUACGAUAGUAGCUUGAAAUCAGAAAACCGACGAAACAAAAAAUAUGAUUUAGCAAGGAUGACCACGUAAUUGUUACAUGCGAGAUGACCACGUAAUUGAAUUAAAUGCCCGCCAUGACCAG [round 5 non-binding clone (SEQ 36)]”: the binding result was “no binding”.
As for “GGGAGGUGAAUGGUUCUACGAUCAGAUGACAAAGCGCAUCAGAAGAAUAAAGUGAGAUAAAGUGUGAGAGGGUUACAUGCGAGAUGACCACGUAAUUGAAUUAAAUGCCCGCCAUGACCAG [round 5 non-binding clone (SEQ 33)]”, the binding result was “no binding”.
Still for that read-out and setting: the entry for “GGGAGGUGAAUGGUUCUACGAUCCGCGAAACUUAAAAAAAACGACAAACGCGUGAGCCGGGCAAGGUAGGUAUUUUACAUGCGAGAUGACCACGUAAUUGAAUUAAAUGCCCGCCAUGACCAG [round 5 non-binding clone (SEQ 35)]” is “no binding”.
Still for that read-out and setting: the entry for “GGGAGGUGAAUGGUUCUACGAUUUUGUGACCUGGUCAGGGAGUUGAAGGGUCGCUCUUUUGAAAAGCCUUGGUUACAUGCGAGAUGACCACGUAAUUGAAUUAAAUGCCCGCCAUGACCAG [round 5 non-binding clone (SEQ 34)]” is “no binding”.

Staying with this data set, now noted: 2'-F pyrimidines; Jurkat cells; full activity retained in 25 uM diferric transferrin; protein on the cell surface; label: AF488.
As for “GGGAGGUGAAUGGUUCUACGAUAAACGGUUAAUGACCAGCUUAUGGCUGGCAGUUCCUAUAGCACCAACUACAUGCGAGAUGACCACGUAAUG [clone 1036]”, the binding result was “binds”.

The same data set, now with this note: 2'-F pyrimidines; Jurkat cells; protein on the cell surface; label: AF488 primer hybridized to 3' constant region.
“GGGAGGUGAAUGGUUCUACGAUCAUUACGGCUACCCCGUGUAACGUCAGCCAAAGUAGACCAAAAGUCAGUUACAUGCGAGAUGACCACGU [clone c11]”: the binding result is recorded as “binds”.

Still in this data set, the particulars now being: 2'-F pyrimidines; Jurkat cells; total loss of activity; SEQ assigned from described change; protein on the cell surface; label: AF488 primer hybridized to 3' constant region; variant of c2 full length.
In the case of “GGGAAGGGACCUCGUUAAAGGACGACUCCCUUACAGAAUUAAAUGCCCGCCAUGACCAG [c2 min.3 (5'-nonamer deleted)]”, the binding result is reported as “no binding”.
Turning to “GGGAGCAUCUCACAGAUCAAUCCAAGGGACCUACUCCCUUACAUGCGAGAUGGAAUUAAAUGCCCGCCAUGACCAG [c2 min.4 (C-rich bulge converted to loop)]”, the binding result is given as “no binding”.
Turning to “GGGAGCAUCUCACAGAUCAAUCCAAGGGGAAAUCCCUUACAUGCGAGAUGGAAUUAAAUGCCCGCCAUGACCAG [c2 min.5 (C-rich bulge removed)]”, the binding result was “no binding”.

Staying with this data set, now noted: 2'-F pyrimidines; full activity retained; SEQ assigned from described change; protein on the cell surface; label: AF488 primer hybridized to 3' constant region; variant of c2 full length.
On to “GGGGACAGAUCAAUUCCGGCUACCCCGUGUAACGUCUAGCCACAUGUCCCCGAAUUAAAUGCCCGCCAUGACCAG [c2 min.9 (c11 stem loop on c2 bulge)]”, for which the binding result is reported as “binds”.

These data come from patent US20150125516.
